Earlier results on one compound are cited in article PMC8006131, “Pulse Dipolar EPR Reveals Double-Histidine Motif Cu^II−NTA Spin-Labeling Robustness against Competitor Ions” (The journal of physical chemistry letters, 2021).

This data set relates to 6R1/28H/32H GB1. Further details: method as in earlier work. Conditions: pH 7.4, cited from earlier work.

Each structure is given as a SMILES string.

For the compound `O=C([O-])CN(CC(=O)[O-])CC(=O)[O-].[Cu+2]` [Cu^II–NTA, Cu^II-nitrilotriacetic acid], the ΔH was -7.54 kcal/mol. Further, under “75 μM protein, 2 mM CuII-NTA”, the “n (stoichiometry of binding)” value was 1.20.
